The target in the test is UniProt P07900 and related entries. Kind of test: NP40-soluble protein abundance relative to vehicle (solubility fold change) (ratio); higher = more soluble protein in presence of ATP. In a few lines:
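Across three independent experiments, values are fold changes against the detergent-processed vehicle for each replicate, based on vsn-normalised intensities. The samples were Jurkat crude lysate treated with eight concentrations (0.1 to 10 mM) for 10 min at room temperature and then 3 min at 37 °C. Lysate was solubilised with 0.8% NP40 and benzonase, ultracentrifuged, and the supernatant analysed by TMT-labelled LC-MS/MS.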

Here are results for one compound from the supplement of paper PMC6411743.

± gives the standard deviation of the averaged measurements. The list shows a part of the results, in another mix than the full data. Most entries show no effect beyond the scatter of the controls.

In the case of `Nc1ncnc2c1ncn2[C@@H]1O[C@H](COP(=O)(O)OP(=O)(O)OP(=O)(O)O)[C@@H](O)[C@H]1O` [adenosine triphosphate], the NP40-soluble protein abundance stood at 1.01 ± 0.026 (concentration: 0.1mM) and 1.01 ± 0.014 (concentration: 0.5mM).
